Test results reported in patent US8951938B2, “Combinatorial rosamine library to detect cell-state switching” (New York University, priority 2007, dated 2015).
For at least one compound, name, drawing or mass did not settle the structure.

Legend:
[1] = system: C2C12 myoblasts; assay: High-throughput screen for myogenesis inhibitors with E26 staining; assay type: cell-based, murine; settings: 600 nM rapamycin during differentiation
[2] = system: C2C12 myoblasts; settings: cited from earlier work

SMILES: CO[C@H]1C[C@@H]2CC[C@@H](C)[C@@](O)(O2)C(=O)C(=O)N2CCCC[C@H]2C(=O)O[C@H]([C@H](C)C[C@@H]2CC[C@@H](O)[C@H](OC)C2)CC(=O)[C@H](C)/C=C(\C)[C@@H](O)[C@@H](OC)C(=O)[C@H](C)C[C@H](C)/C=C/C=C/C=C/1C [rapamycin]
- cellular fluorescence with E26 treatment [1]: decrease in cellular fluorescence
- concentration capable of inhibiting differentiation of C2C12 myoblasts [2]: ≥ 10 nM
